Assay results published in paper PMC8313409.
No constants are given. Whether binding was seen depends on the method and setting. In cells and extracts the contact can be indirect. Some entries that bind do so weakly or less than the wild type. Sequences can lack the tags named with a protein. Each block holds one molecule with its values, some of them ahead of it.

Protein sequences, listed by entry. Tags and fused reporters are not part of them.
UniProt P63017: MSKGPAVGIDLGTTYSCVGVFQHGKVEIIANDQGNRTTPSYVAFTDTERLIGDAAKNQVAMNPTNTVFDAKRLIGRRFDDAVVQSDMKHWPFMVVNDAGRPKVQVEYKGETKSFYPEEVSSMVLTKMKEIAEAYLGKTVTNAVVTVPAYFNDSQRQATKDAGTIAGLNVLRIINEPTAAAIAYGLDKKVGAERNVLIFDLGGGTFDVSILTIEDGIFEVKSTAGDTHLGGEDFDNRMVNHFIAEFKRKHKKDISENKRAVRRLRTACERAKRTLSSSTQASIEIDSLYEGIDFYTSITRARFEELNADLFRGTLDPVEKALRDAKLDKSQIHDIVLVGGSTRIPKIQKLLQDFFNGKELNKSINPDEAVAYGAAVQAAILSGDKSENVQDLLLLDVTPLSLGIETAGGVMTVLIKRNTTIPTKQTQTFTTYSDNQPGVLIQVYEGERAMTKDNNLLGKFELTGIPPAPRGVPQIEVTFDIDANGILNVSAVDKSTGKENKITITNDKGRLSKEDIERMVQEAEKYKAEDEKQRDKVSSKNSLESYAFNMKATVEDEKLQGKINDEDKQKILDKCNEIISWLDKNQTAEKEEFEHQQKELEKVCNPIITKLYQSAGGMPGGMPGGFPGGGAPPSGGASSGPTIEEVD
UniProt P25322: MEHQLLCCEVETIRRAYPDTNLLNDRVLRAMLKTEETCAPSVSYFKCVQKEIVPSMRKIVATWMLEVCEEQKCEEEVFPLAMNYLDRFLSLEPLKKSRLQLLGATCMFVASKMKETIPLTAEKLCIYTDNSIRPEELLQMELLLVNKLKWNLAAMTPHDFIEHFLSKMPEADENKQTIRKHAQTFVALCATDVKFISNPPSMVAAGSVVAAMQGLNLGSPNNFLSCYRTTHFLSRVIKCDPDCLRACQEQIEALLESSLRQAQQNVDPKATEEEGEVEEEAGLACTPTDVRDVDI

Target: Hsc70-HA (UniProt P63017)
Test: co-IP; N2A cells expressing Hsc70-HA or Hsp90-HA with cyclin D1–Flag or CDK4-Flag; lysed at 4°C in coIP buffer (50 mM Tris HCl pH 7.4, 150 mM NaCl, 1 mM EDTA, 1% Nonidet P-40, 10% glycerol); the HA-tagged protein precipitated, Flag-tagged protein detected by immunoblot

- binding: binds
Molecule: cyclin D1–Flag (from UniProt P25322 1-295)

- binding: binds
B1: CDK4-Flag (protein, UniProt P30285 1-303)
chain: MAATRYEPVAEIGVGAYGTVYKARDPHSGHFVALKSVRVPNGGAAGGGLPVSTVREVALLRRLEAFEHPNVVRLMDVCATSRTDRDIKVTLVFEHIDQDLRTYLDKAPPPGLPVETIKDLMRQFLSGLDFLHANCIVHRDLKPENILVTSNGTVKLADFGLARIYSYQMALTPVVVTLWYRAPEVLLQSTYATPVDMWSVGCIFAEMFRRKPLFCGNSEADQLGKIFDLIGLPPEDDWPREVSLPRGAFAPRGPRPVQSVVPEMEESGAQLLLEMLTFNPHKRISAFRALQHSYLHKEESDAE
